In the assay the test system is HEK293A TEAD-LUC reporter. Briefly: TEAD-luciferase reporter activity (YAP activation), robust Z score vs plate; higher = stronger YAP/TEAD activation. Conditions: 24 h.

The list shows a part of the results. This data set is noisy: repeats of one test often differ as much as different tests do.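 Human kidney-derived cells stably carry a construct in which eight TEAD-binding elements drive luciferase, measured by luminescence in a drug-repurposing library screen. A hit is any compound whose signal exceeds the plate mean by more than five robust Z scores.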

In the case of `Cc1ccccc1NC(=O)C(C)N1CCCC1` (centres undefined), the TEAD-luciferase reporter activity by setting is: (compound concentration: 200 nM) inactive: 1.67; (compound concentration: 10 uM) inactive: 0.202.

With `Cc1ccccc1NC(=O)C(C)N1CCCC1` (centres undefined) [Aptocaine], the TEAD-luciferase reporter activity (compound concentration: 2 uM) was inactive: -0.87.

As for `CCCN1CCCC12Cc1ccccc1CN(C(=O)CCCC(=O)O)C2` (centres undefined), the TEAD-luciferase reporter activity is inactive: -0.119 (compound concentration: 200 nM) and inactive: 0.162 (compound concentration: 10 uM).

In the case of `CC(C)(CCC(C(N)=O)(c1ccccc1)c1ccccc1)N1CC(Oc2cccc(O)c2)C1`, the TEAD-luciferase reporter activity was inactive: 0.135 (compound concentration: 200 nM), inactive: -0.884 (compound concentration: 2 uM) and inactive: 1.54 (compound concentration: 10 uM).

As for `CON(Cc1ccc(F)cc1)C(=O)/C=C1\OC(C)(C)OC1=O`, the TEAD-luciferase reporter activity by setting is: (compound concentration: 200 nM) inactive: 1.25; (compound concentration: 2 uM) inactive: -0.645; (compound concentration: 10 uM) inactive: -0.475.

In the case of `COCCNC(=O)COc1ccc(OCCNC[C@H](O)COc2ccccc2)cc1`, the TEAD-luciferase reporter activity (compound concentration: 200 nM) was inactive: -1.35, the TEAD-luciferase reporter activity (compound concentration: 2 uM) was inactive: -0.176 and the TEAD-luciferase reporter activity (compound concentration: 10 uM) was inactive: 3.68.

With `CC(C)(C)CC(=O)OCC(=O)[C@@]12OC(C)(C)O[C@@H]1C[C@H]1[C@@H]3CCC4=CC(=O)C=C[C@]4(C)[C@@]3(F)[C@@H](O)C[C@@]12C`, the TEAD-luciferase reporter activity (compound concentration: 200 nM) was inactive: -1.79, the TEAD-luciferase reporter activity (compound concentration: 2 uM) is inactive: 1.95 and the TEAD-luciferase reporter activity (compound concentration: 10 uM) is inactive: 1.3.

Regarding `O=C(Nc1ccc2c(c1)CCN(Cc1ncn[nH]1)C2)c1ccccc1-c1ccc(C(F)(F)F)cc1`, the TEAD-luciferase reporter activity (compound concentration: 200 nM) was inactive: -0.187, the TEAD-luciferase reporter activity (compound concentration: 2 uM) was inactive: -0.18 and the TEAD-luciferase reporter activity (compound concentration: 10 uM) was inactive: -1.44.

Turning to `CNC=O` [N-Methylformamide], the TEAD-luciferase reporter activity (compound concentration: 2 uM) was inactive: 0.426.

`CNC=O`: the TEAD-luciferase reporter activity was inactive: -1.75 (compound concentration: 200 nM) and inactive: 0.468 (compound concentration: 10 uM).

Turning to `CC(=O)Oc1cc(C)c(OC(C)=O)c2ccccc12`, the TEAD-luciferase reporter activity by setting is: (compound concentration: 200 nM) inactive: 0.161; (compound concentration: 2 uM) inactive: -1.85; (compound concentration: 10 uM) inactive: 0.467.

As to `COC(=O)C(C)(C)CCCOc1ccc(OCCCC(C)(C)C(=O)OC)c(-c2ccccc2)c1`, the TEAD-luciferase reporter activity by setting is: (compound concentration: 200 nM) inactive: -2.24; (compound concentration: 2 uM) inactive: 0.684; (compound concentration: 10 uM) inactive: -0.0223.

Regarding `CC(C)C1CCCN1Cc1nc2c(oc3ccccc32)c(=O)[nH]1` (centres undefined), the TEAD-luciferase reporter activity by setting is: (compound concentration: 200 nM) inactive: -2.15; (compound concentration: 2 uM) inactive: -0.79; (compound concentration: 10 uM) inactive: 0.402.

For `CCCC(=O)O[C@]1(C(=O)COC(=O)CC)[C@@H](C)C[C@H]2[C@@H]3CCC4=CC(=O)C=C[C@]4(C)[C@@]3(F)[C@@H](O)C[C@@]21C`, the TEAD-luciferase reporter activity (compound concentration: 200 nM) is inactive: -0.897, the TEAD-luciferase reporter activity (compound concentration: 2 uM) is inactive: -0.414 and the TEAD-luciferase reporter activity (compound concentration: 10 uM) was inactive: 0.128.

As for `CCC(O)(c1ccccc1)c1cccc(C(F)(F)F)c1` (centres undefined) [flumecinol], the TEAD-luciferase reporter activity is, setting by setting: (compound concentration: 200 nM) inactive: -1.58; (compound concentration: 2 uM) inactive: -0.429; (compound concentration: 10 uM) inactive: -0.476.

Consider `CCc1nc2c(C)cc(C(=O)O)nc2n1Cc1ccc(-c2ccccc2-c2nnn[nH]2)cc1`, for which the TEAD-luciferase reporter activity by setting is: (compound concentration: 200 nM) inactive: -2.46; (compound concentration: 2 uM) inactive: -1.03; (compound concentration: 10 uM) inactive: -2.08.

For the compound `O=C(O)CN(CCN(CC(=O)O)CC(=O)O)CCN(CC(=O)O)CC(=O)O`, the TEAD-luciferase reporter activity is inactive: -0.0482 (compound concentration: 200 nM), inactive: 0.007 (compound concentration: 2 uM) and inactive: 1.67 (compound concentration: 10 uM).

Values taken from the supplement of paper PMC10735217.
